In publication PMC4482279 one finds binding data, which are given here for one molecule.

The assay has as its target tyrosine phosphorylated epidermal growth factor receptor (pEGFR) in EGF-stimulated A431 cell lysate (human (endogenous in A431)) (UniProt P00533). The experiment in a line: proximity ligation; SH2-PLA Method 1, in solution: cell or tissue lysate premixed with anti-EGFR 3' Prox-Oligo probe (0.5 nM), GST-domain (0.1 μg/ml) premixed with anti-GST 5' Prox-Oligo probe (0.5 nM), each 1.5 h at 4 °C, then combined 1.5 h at 4 °C; ligation and real-time PCR (Ct); lysates of cells with or without EGF stimulation; only the binder purified. In general terms: Real-time PCR tracks product formation cycle by cycle.

No constants are given. Whether binding was seen depends on the method and setting. Binding seen in cells or lysates may run through a third protein. Some entries that bind do so weakly or less than the wild type. Sequences can lack the tags named with a protein.

B1: GST-Vav2 SH2 (665-774) (domain or fragment, UniProt P52735 665-774)
chain: EIDYTAYPWFAGNMERQQTDNLLKSHASGTYLIRERPAEAERFAISIKFNDEVKHIKVVEKDNWIHITEAKKFDSLLELVEYYQCHSLKESFKQLDTTLKYPYKSRERSA
For B1, the binding result is “binds”.
